The text below walks through data of publication doi:10.1101/2024.02.28.582498.

Protein sequences, listed by entry. Tags and fused reporters are not part of them.
UniProt P0CY32: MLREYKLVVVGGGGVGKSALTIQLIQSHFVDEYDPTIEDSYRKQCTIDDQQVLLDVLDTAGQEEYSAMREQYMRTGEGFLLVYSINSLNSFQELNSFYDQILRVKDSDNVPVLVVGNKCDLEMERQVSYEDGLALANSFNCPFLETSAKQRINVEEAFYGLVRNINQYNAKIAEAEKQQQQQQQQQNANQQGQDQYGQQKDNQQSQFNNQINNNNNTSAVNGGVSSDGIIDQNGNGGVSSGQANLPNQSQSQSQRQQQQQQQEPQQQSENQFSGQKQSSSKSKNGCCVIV

The target of test [1] is CaGpi2-6x-His (C. albicans GPI-GnT subunit Gpi2, His6 at its C-terminus) (C. albicans) (UniProt Q5A6L6). The test can be described thus: FRET or BRET. On the technique in general: Bioluminescence resonance energy transfer reports proximity on the nanometre scale.
Test [2] has the same target. In words: pull-down.

These are yes or no findings as the source states them, for the method shown. Binding seen in cells or lysates may run through a third protein. Binding calls can cover weak binding; strength is not graded here.

Take CaRas1 (from UniProt P0CY32 1-290): the binding entry in test [1] and in test [2] was “binds” in each case.
